Experimental data reported in patent US7186408.
Results are given in words; binding and its absence hold for the method and conditions named. Some results given as binding are weak or reduced against the parent protein; the word gives no strength. Sequences can lack the tags named with a protein.

Protein sequences, listed by entry. Tags and fused reporters are not part of them. Lines headed by an entry give the natural chain unless they say otherwise; changes in a name come on top.
UniProt Q60846: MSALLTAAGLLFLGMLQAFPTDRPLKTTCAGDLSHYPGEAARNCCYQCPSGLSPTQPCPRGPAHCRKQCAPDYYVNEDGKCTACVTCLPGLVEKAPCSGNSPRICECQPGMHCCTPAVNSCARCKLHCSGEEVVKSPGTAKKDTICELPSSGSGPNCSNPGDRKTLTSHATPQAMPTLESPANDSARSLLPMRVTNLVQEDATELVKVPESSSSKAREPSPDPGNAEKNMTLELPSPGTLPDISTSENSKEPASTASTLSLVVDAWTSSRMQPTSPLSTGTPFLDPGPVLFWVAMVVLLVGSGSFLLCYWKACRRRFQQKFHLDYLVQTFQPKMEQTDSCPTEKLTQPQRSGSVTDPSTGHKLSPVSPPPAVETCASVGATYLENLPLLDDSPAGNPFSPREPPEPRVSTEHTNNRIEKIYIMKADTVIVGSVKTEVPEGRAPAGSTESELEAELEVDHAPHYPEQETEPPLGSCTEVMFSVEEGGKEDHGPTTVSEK

Target: T1, Recombinant mouse CD30L (soluble, 6x histidine-tagged, R&D Systems) (mouse) (UniProt P32972)
T1 sequence (looked up): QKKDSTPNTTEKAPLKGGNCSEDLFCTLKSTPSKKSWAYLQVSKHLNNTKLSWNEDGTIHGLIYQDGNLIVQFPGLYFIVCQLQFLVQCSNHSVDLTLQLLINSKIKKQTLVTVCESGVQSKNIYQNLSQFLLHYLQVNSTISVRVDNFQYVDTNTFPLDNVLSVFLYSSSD
Test: scintillation proximity assay, Fc fusion on protein A FlashPlate, 150 pM mouse 125I-CD30L with or without unlabelled CD30L

With “Recombinant mouse CD30-Fc (R&D Systems) (from UniProt Q60846 19-281) (Fc fusion)” the binding was “binds”.
